Data on one molecule can be found in patent EP4789728A2 (Serpin Pharma, LLC, dated 2026).

The chains behind the UniProt entries cited, without tags or fusion partners. Residues count along the entry.
UniProt Q07954, residues 805-1184: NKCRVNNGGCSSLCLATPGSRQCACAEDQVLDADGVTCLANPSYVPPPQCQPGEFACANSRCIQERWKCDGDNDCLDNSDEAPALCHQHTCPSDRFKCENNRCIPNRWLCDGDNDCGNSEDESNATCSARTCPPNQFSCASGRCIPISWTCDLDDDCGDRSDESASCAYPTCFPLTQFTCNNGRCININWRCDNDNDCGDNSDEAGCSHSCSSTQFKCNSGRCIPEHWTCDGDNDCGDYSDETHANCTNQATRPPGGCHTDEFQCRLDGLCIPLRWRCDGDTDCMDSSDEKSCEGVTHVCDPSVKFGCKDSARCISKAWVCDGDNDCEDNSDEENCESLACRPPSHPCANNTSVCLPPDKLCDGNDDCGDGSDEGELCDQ

The target of the assay is Recombinant LRP1 (Cluster II) (UniProt Q07954). Put plainly: ELISA, plate-bound recombinant LRP1 (Cluster II), biotinylated peptide, streptavidin HRP.

No constants are given. Whether binding was seen depends on the method and setting. Some binding calls cover weakened binding; strength is not graded here.

Consider VKFNKPFVFLMIEQNTK (biotinylated in the ELISA of Example 2 (site of biotin not stated)) [SP16 (AAT Core)], for which the binding result is on record as “binds”.
